Assay results taken from PubChem BioAssay AID588463 (National Center for Advancing Translational Sciences (NCATS), 2011).
Among all 1,200 compounds or so, about 15 (1%) were called active. Not shown: some 7% with an inconclusive outcome. The call rests on the fitted dose curve; in most records, active means well fitted activation curve with a large enough effect; inconclusive means small, poorly fitted or top-dose-only effect; inactive means flat fitted curve, though single readings scatter. This is one part of the list.

target: Beta-2 adrenergic receptor (Homo sapiens) (UniProt P07550); assay: qHTS assay of beta-arrestin-biased ligands of beta2-adrenergic receptor: Hit Validation; settings: cell-based beta-arrestin recruitment to beta2AR; Potency: activation; series mostly up to 46.1 µM; activation: at the top concentration;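 further: plate controls were DMSO for no effect and maximal isoproterenol or metaproterenol response for full effect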
Procedure, shortened: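 Luminescent tTA-driven luciferase reporter in Tango cells, read after 18 h at 37 °C with compound and 15 min with substrate mix (0.15 mM ATP, 0.44 mM D-luciferin, final). Concentration-response fits categorized by curve class.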

Compound | activation
Cc1ccc(/C=C/C(=O)c2ccccc(=O)c2O)c(C)c1 | inactive: 0.972%
CCOC(=O)C1=C(C)N(c2ccc(C)cc2)C(=O)/C1=C\c1ccc(O)c(OC)c1 | inactive: 0.409%
CC1=NN(C(N)=S)C(=O)C1N=Nc1ccc(F)cc1 (configuration not stated) | inactive: 0.894%
CC(C)(C)NC(=O)C(c1ccc(F)cc1)N(Cc1ccccc1Cl)C(=O)c1ccn[nH]1 (configuration not stated) | inactive: 7.27%
C[C@H](CO)N1C[C@H](C)[C@@H](CN(C)Cc2ccccc2)Oc2c(NC(=O)Cc3ccccc3)cccc2C1=O | inactive: 7.66%
CCN(Cc1ccc2c(c1)OCCO2)C(=O)CN1C(=O)NC2(CCc3ccccc32)C1=O (configuration not stated) | inactive: -0.571%
CCOc1ccc(/C(CCC(=O)O)=N/NC(=S)NCCc2ccccc2)cc1 | inactive: -2%
Cc1ccc(C)c(-n2c(SCC(=O)O)nc3sc4c(c3c2=O)CCCC4)c1 | inactive: 0.43%
C/C(CCc1ccccc1)=N/NC(=O)C(=O)NC(C)c1ccccc1 (configuration not stated) | inactive: -3.24%
Cc1cc(C)n(-c2nc(NC(C)C)nc(NC(C)C)n2)n1 | inactive: -3.01%
COCCNC(=S)N/N=C(\C)CCc1ccc2c(c1)OCO2 | inactive: -3.71%
CCNC(=S)NNc1ccccc1 | inactive: -0.243%
C/C(=N\NC(=S)NC(C)C)c1ccccc1 | inactive: -3.07%
O=C(/C=C/Sc1ncn[nH]1)c1ccc(Cl)cc1 | inactive: -7.78%
O=C(O)CCC(=O)N1N=C(c2ccccc2)CC1c1ccc2nccnc2c1 (configuration not stated) | inactive: -2.51%
O=[N+]([O-])c1ccc(O)c2ncccc12 | inactive: -2.92%

Compound | activation
O=C(/C=C/c1ccc(Cl)cc1)NC(=S)Nc1ccccc1C(=O)O | inactive: 0.6%
Cc1cc(C)nc(S/C=C/C(=O)c2ccccc2)n1 | inactive: -1.99%
CC/C(=N\NC(=S)NC(C)C)c1ccc(OC)c(OC)c1 | inactive: -4.65%
CC(Oc1ccc(Br)cc1)C(=O)Nc1nc(-c2ccccn2)cs1 (configuration not stated) | inactive: 5.09%
NC(=S)NN=C1C2CC3CC(C2)CC1C3 | inactive: -2.78%
FC(F)(F)c1ccc(Cl)c(-n2c(Cc3cccs3)n[nH]c2=S)c1 | inactive: -2.18%
O=C(OCc1ccc([N+](=O)[O-])cc1Cl)c1cnccn1 | inactive: -4.6%
C=CCN1CCc2cc(O)c(O)cc2C(c2ccccc2)C1 (configuration not stated) | inactive: -3.24%
COc1cc(/C=N/NC(N)=S)ccc1OC(=O)c1ccc(C)cc1 | inactive: -2.34%
C/C(=N\NC(=S)NCc1ccccc1)c1ccccc1F | inactive: -1.61%
CN1C(=S)SC(C)(C)C1(C)NO (configuration not stated) | inactive: -3.28%
COCCCNC(=S)N/N=C/c1cccc(OC)c1O | inactive: -2.06%
CC(OC(=O)Cc1ccccc1[N+](=O)[O-])C(=O)Nc1ccc(Cl)cn1 (configuration not stated) | inactive: 1.98%
CC(=O)c1ccc(N2CCN(C(=O)C3CCCN(S(=O)(=O)c4c(C)[nH]c(=O)[nH]c4=O)C3)CC2)cc1 (configuration not stated) | inactive: -4.9%
CNC(=S)N/N=C/c1cc(C)ccc1C | inactive: -3.17%
COc1ccc(OCC(O)CN2CCN(c3ccccc3)CC2)cc1 (configuration not stated) | inactive: -3.18%

For reference, some entries already given:
Compound | activation
O=C(OCc1ccc([N+](=O)[O-])cc1Cl)c1cnccn1 | inactive: -4.6%
C=CCN1CCc2cc(O)c(O)cc2C(c2ccccc2)C1 (configuration not stated) | inactive: -3.24%
